Earlier results in patent publication US11944688B2, “Biologically active compounds” (SUTURA THERAPEUTICS LTD, priority 2015, dated 2024).
At least one compound was matched to its structure with a doubt left.

Details: cited from earlier work

## C[C@H](N)C(=O)O [Alganine]
  pI4 (pH at the isoelectric point): 6.00
  pKa1 (negative logarithm of the dissociated constant for the -COOH group): 2.34
  pKb2 (negative logarithm of the dissociated constant for the -NH3+ group): 9.69
